Results published in doi:10.1101/358176.
No constants are given. Whether binding was seen depends on the method and setting. Binding seen in cells or lysates may run through a third protein. Some entries that bind do so weakly or less than the wild type. Where a sequence is shown, tags or fusion partners need not be part of it.

Amino acid sequences for entries named in this document (tags omitted).
UniProt Q03017: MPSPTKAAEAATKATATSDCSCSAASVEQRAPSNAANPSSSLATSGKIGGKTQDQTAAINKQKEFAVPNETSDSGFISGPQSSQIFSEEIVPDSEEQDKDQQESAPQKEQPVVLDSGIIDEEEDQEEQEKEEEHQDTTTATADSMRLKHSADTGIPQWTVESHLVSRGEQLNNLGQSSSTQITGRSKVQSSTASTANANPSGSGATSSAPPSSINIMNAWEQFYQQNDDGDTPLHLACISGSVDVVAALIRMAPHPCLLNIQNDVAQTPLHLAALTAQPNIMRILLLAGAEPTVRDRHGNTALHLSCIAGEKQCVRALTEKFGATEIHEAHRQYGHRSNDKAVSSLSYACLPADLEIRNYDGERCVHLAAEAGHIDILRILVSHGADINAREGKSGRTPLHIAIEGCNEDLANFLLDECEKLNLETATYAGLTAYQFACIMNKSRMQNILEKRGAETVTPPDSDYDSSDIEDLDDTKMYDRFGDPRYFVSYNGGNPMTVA

Target: T1, GFP-tagged dl (dorsal) (Drosophila melanogaster) (UniProt P15330)
T1 sequence: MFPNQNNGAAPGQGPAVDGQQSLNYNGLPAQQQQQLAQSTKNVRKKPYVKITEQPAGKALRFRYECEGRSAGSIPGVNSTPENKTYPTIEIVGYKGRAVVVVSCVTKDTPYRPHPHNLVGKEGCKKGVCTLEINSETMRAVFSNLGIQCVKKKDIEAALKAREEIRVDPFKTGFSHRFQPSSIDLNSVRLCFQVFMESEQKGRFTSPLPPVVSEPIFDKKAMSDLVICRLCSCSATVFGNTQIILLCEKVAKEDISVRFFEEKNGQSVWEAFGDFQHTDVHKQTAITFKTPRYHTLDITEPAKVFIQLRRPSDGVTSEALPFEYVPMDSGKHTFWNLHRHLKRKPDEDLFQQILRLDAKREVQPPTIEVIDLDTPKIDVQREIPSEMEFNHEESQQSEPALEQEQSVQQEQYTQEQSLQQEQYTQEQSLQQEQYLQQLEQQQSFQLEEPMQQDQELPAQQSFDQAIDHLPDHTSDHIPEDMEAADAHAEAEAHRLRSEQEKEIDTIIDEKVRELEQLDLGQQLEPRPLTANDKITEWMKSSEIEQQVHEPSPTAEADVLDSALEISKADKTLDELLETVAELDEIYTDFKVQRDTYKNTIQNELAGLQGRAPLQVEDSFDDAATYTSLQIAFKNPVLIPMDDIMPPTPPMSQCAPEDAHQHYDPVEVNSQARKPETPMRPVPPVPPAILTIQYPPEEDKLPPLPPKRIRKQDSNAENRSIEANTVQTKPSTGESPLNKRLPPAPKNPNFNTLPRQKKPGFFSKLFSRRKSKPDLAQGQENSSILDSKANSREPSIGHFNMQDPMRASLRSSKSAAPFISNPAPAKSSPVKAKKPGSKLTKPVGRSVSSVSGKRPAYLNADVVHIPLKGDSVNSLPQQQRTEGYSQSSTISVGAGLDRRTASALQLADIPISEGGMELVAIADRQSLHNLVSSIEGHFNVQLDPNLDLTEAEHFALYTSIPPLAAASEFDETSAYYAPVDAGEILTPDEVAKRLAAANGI
Assay: co-IP

In the case of “V5-tagged cact (cactus) (from UniProt Q03017 1-500)”, the binding is reported as “binds”.
